Laboratory results published in publication PMC8888699, “Crystal structure and catalytic mechanism of the MbnBC holoenzyme required for methanobactin biosynthesis” (Cell Research, 2022).
Results are given in words; binding and its absence hold for the method and conditions named. For some assays here: Binding seen in cells or lysates may run through a third protein. Some entries that bind do so weakly or less than the wild type.

T1: MtMbnC (Methylosinus trichosporium OB3b)
T1 sequence: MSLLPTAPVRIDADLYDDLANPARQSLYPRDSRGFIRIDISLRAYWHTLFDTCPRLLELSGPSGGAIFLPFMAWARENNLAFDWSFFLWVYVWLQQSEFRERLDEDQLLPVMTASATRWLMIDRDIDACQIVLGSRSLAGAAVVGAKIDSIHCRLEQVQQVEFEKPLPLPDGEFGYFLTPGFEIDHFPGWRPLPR

T2: MtMbnBC complex (Methylosinus trichosporium OB3b)
T2 sequence 1: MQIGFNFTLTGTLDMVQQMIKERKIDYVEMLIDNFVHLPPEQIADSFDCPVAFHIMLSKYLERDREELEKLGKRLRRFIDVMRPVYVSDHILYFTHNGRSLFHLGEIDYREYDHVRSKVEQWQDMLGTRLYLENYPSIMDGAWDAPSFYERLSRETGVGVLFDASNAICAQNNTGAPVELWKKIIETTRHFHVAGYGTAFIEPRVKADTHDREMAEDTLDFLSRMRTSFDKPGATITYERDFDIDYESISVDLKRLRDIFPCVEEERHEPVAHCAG
T2 sequence 2: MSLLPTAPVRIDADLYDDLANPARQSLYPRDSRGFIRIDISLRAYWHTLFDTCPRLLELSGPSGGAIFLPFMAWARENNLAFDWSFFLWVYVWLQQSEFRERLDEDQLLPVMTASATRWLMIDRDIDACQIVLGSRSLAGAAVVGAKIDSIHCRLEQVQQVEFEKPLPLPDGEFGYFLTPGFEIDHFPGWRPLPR


How the values were obtained:
[1] = target: T1, MtMbnC (Methylosinus trichosporium OB3b); test: pull-down; His6-MbnC and untagged MbnB co-expressed in E. coli from pET-Duet-1; applied to a nickel affinity column
[2] = target: T2, MtMbnBC complex (Methylosinus trichosporium OB3b); test: ITC; MbnA peptide (2 mM, in distilled water) injected, 20 x 2.5 uL every 120 s, into a cell with 190 uL MbnBC or mutant MbnBC (1 mg/mL) in 25 mM HEPES pH 8.0, 100 mM NaCl; 16 °C; both purified

Binder	binding [1]	binding [2]
MtMbnB (enzyme, UniProt A0A2D2D5M1 1-276) MQIGFNFTLTGTLDMVQQMIKERKIDYVEMLIDNFVHLPPEQIADSFDCPVAFHIMLSKYLERDREELEKLGKRLRRFIDVMRPVYVSDHILYFTHNGRSLFHLGEIDYREYDHVRSKVEQWQDMLGTRLYLENYPSIMDGAWDAPSFYERLSRETGVGVLFDASNAICAQNNTGAPVELWKKIIETTRHFHVAGYGTAFIEPRVKADTHDREMAEDTLDFLSRMRTSFDKPGATITYERDFDIDYESISVDLKRLRDIFPCVEEERHEPVAHCAG	binds	
MTVKIAQKKVLPVIGRAAALCGSCYPCSCM [MtMbnA peptide]		binds
